# Results from the supplement of paper PMC8728848.
# The list shows a part of the results.
# Legend:
# Assay in all cases: glycan array binding signal (z-score within array); higher = stronger binding
# Conditions in all cases: glycan notation: IUPAC condensed, linker removed
# [1] = molecular target: Neu5Ac(a2-3)Gal(b1-4)[Fuc(a1-3)]GlcNAc(b1-3)Gal
# How it was run: (§1)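 Glycan array data came from 3228 arrays in the Consortium for Functional Glycomics database, and only arrays with an available protein sequence were kept. Glycan names were put into IUPAC-condensed notation, and columns mapping to the same glycan were averaged. The binding signal is a within-array Z-score, averaged across arrays of one protein sequence run at different concentrations or buffers and across linkers. A negative Z-score can be read as non-binding.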
# [2] = molecular target: Neu5Ac(a2-3)Gal(b1-4)[Fuc(a1-3)]GlcNAc(b1-3)Gal(b1-4)GlcNAc
# How it was run: as §1
# [3] = molecular target: Neu5Ac(a2-3)Gal(b1-4)[Fuc(a1-3)]GlcNAc(b1-3)Gal(b1-4)[Fuc(a1-3)]GlcNAc(b1-3)Gal(b1-4)[Fuc(a1-3)]GlcNAc
# How it was run: as §1
# [4] = molecular target: Neu5Ac(a2-3)Gal(b1-4)[Fuc(a1-3)]GlcNAc(b1-6)[Gal(b1-3)]GalNAc
# How it was run: as §1
# [5] = molecular target: Neu5Ac(a2-3)Gal(b1-4)[Fuc(a1-3)]GlcNAc6S
# How it was run: as §1
# [6] = molecular target: Neu5Ac(a2-3)Gal6S(b1-4)GlcNAc
# How it was run: as §1
# [7] = molecular target: Neu5Ac(a2-3)Gal6S(b1-4)[Fuc(a1-3)]GlcNAc
# How it was run: as §1
# [8] = molecular target: Neu5Ac(a2-3)GalNAc
# How it was run: as §1
# [9] = molecular target: Neu5Ac(a2-3)GalNAc(b1-4)GlcNAc
# How it was run: as §1
# [10] = molecular target: Neu5Ac(a2-3)[GalNAc(b1-4)]Gal(b1-4)Glc
# How it was run: as §1
# [11] = molecular target: Neu5Ac(a2-3)[GalNAc(b1-4)]Gal(b1-4)GlcNAc
# How it was run: as §1
# [12] = molecular target: Neu5Ac(a2-3)[Neu5Ac(a2-6)]GalNAc
# How it was run: as §1
# [13] = molecular target: Neu5Ac(a2-6)Gal
# How it was run: as §1
# [14] = molecular target: Neu5Ac(a2-6)Gal(b1-4)Glc
# How it was run: as §1
# [15] = molecular target: Neu5Ac(a2-6)Gal(b1-4)GlcNAc
# How it was run: as §1
# [16] = molecular target: Neu5Ac(a2-6)Gal(b1-4)GlcNAc(b1-2)Man(a1-3)[Gal(b1-4)GlcNAc(b1-2)Man(a1-6)]Man(b1-4)GlcNAc(b1-4)GlcNAc
# How it was run: as §1
# [17] = molecular target: Neu5Ac(a2-6)Gal(b1-4)GlcNAc(b1-2)Man(a1-3)[GlcNAc(b1-2)Man(a1-6)]Man(b1-4)GlcNAc(b1-4)GlcNAc
# How it was run: as §1
# [18] = molecular target: Neu5Ac(a2-6)Gal(b1-4)GlcNAc(b1-2)Man(a1-3)[GlcNAc(b1-2)Man(b1-4)GlcNAc(b1-2)Man(a1-6)]Man(b1-4)GlcNAc(b1-4)GlcNAc
# How it was run: as §1
# [19] = molecular target: Neu5Ac(a2-6)Gal(b1-4)GlcNAc(b1-2)Man(a1-3)[Neu5Ac(a2-6)Gal(b1-4)GlcNAc(b1-2)Man(a1-6)]Man(b1-4)GlcNAc(b1-4)GlcNAc
# How it was run: as §1
# [20] = molecular target: Neu5Ac(a2-6)Gal(b1-4)GlcNAc(b1-2)Man(a1-6)[Gal(b1-4)GlcNAc(b1-2)Man(a1-3)]Man(b1-4)GlcNAc(b1-4)GlcNAc
# How it was run: as §1
# [21] = molecular target: Neu5Ac(a2-6)Gal(b1-4)GlcNAc(b1-2)Man(a1-6)[GlcNAc(b1-2)Man(a1-3)]Man(b1-4)GlcNAc(b1-4)GlcNAc
# How it was run: as §1
# [22] = molecular target: Neu5Ac(a2-6)Gal(b1-4)GlcNAc(b1-3)Gal(b1-4)GlcNAc
# How it was run: as §1
# [23] = molecular target: Neu5Ac(a2-6)Gal(b1-4)GlcNAc(b1-3)Gal(b1-4)[Fuc(a1-3)]GlcNAc(b1-3)Gal(b1-4)[Fuc(a1-3)]GlcNAc
# How it was run: as §1
# [24] = molecular target: Neu5Ac(a2-6)Gal(b1-4)GlcNAc6S
# How it was run: as §1
# [25] = molecular target: Neu5Ac(a2-6)GalNAc
# How it was run: as §1
# [26] = molecular target: Neu5Ac(a2-6)GalNAc(b1-4)GlcNAc
# How it was run: as §1
# [27] = molecular target: Neu5Ac(a2-8)Neu5Ac
# How it was run: as §1
# [28] = molecular target: Neu5Ac(a2-8)Neu5Ac(a2-3)Gal(b1-4)Glc
# How it was run: as §1
# [29] = molecular target: Neu5Ac(a2-8)Neu5Ac(a2-3)[GalNAc(b1-4)]Gal(b1-4)Glc
# How it was run: as §1
# [30] = molecular target: Neu5Ac(a2-8)Neu5Ac(a2-8)Neu5Ac
# How it was run: as §1
# [31] = molecular target: Neu5Ac(a2-8)Neu5Ac(a2-8)Neu5Ac(a2-3)Gal(b1-4)Glc
# How it was run: as §1
# [32] = molecular target: Neu5Ac(a2-8)Neu5Ac(a2-8)Neu5Ac(a2-3)[GalNAc(b1-4)]Gal(b1-4)Glc
# How it was run: as §1
# [33] = molecular target: Neu5Ac(a2-8)Neu5Ac(a2-8)Neu5Ac(a2-8)Neu5Ac(a2-3)[GalNAc(b1-4)]Gal(b1-4)Glc
# How it was run: as §1
# [34] = molecular target: Neu5Ac(b2-6)Gal(b1-4)GlcNAc
# How it was run: as §1
# [35] = molecular target: Neu5Ac(b2-6)GalNAc
# How it was run: as §1
# [36] = molecular target: Neu5Ac9Ac(a2-6)Gal(b1-4)GlcNAc
# How it was run: as §1
# [37] = molecular target: Neu5Gc(a2-3)Gal(b1-3)GlcNAc
# How it was run: as §1
# [38] = molecular target: Neu5Gc(a2-3)Gal(b1-3)[Fuc(a1-4)]GlcNAc
# How it was run: as §1
# [39] = molecular target: Neu5Gc(a2-3)Gal(b1-4)Glc
# How it was run: as §1
# [40] = molecular target: Neu5Gc(a2-3)Gal(b1-4)GlcNAc
# How it was run: as §1
# [41] = molecular target: Neu5Gc(a2-3)Gal(b1-4)[Fuc(a1-3)]GlcNAc
# How it was run: as §1
# [42] = molecular target: Neu5Gc(a2-6)Gal(b1-4)GlcNAc
# How it was run: as §1
# [43] = molecular target: Neu5Gc(a2-6)GalNAc
# How it was run: as §1
# [44] = molecular target: Neu5Gc(b2-6)Gal(b1-4)GlcNAc
# How it was run: as §1
binder,measurement,setting,value
"RfpC (Mycobacterium tuberculosum), O07747 (protein) MHHHHHHSSGRENLYFQGHMASKSAMAAGLVTASMSLSTAVAHAGPSPNWDAVAQCESGGNWAANTGNGKYGGLQFKPATWAAFGGVGNPAAASREQQIAVANRVLAEQGLDAWPTCGAASGLPIALWSKPAQGIKGS",glycan array binding signal (z-score),[1],1.29
same,glycan array binding signal (z-score),[2],2.25
same,glycan array binding signal (z-score),[3],-0.798
same,glycan array binding signal (z-score),[4],0.309
same,glycan array binding signal (z-score),[5],1.29
same,glycan array binding signal (z-score),[6],-1.15
same,glycan array binding signal (z-score),[7],-0.738
same,glycan array binding signal (z-score),[8],1.09
same,glycan array binding signal (z-score),[9],-0.081
same,glycan array binding signal (z-score),[10],-0.195
same,glycan array binding signal (z-score),[11],0.75
same,glycan array binding signal (z-score),[12],0.475
same,glycan array binding signal (z-score),[13],-0.409
same,glycan array binding signal (z-score),[14],0.057
same,glycan array binding signal (z-score),[15],-0.595
same,glycan array binding signal (z-score),[16],-0.731
same,glycan array binding signal (z-score),[17],-0.288
same,glycan array binding signal (z-score),[18],-0.604
same,glycan array binding signal (z-score),[19],-0.031
same,glycan array binding signal (z-score),[20],0.204
same,glycan array binding signal (z-score),[21],-0.953
same,glycan array binding signal (z-score),[22],-1.31
same,glycan array binding signal (z-score),[23],-0.135
same,glycan array binding signal (z-score),[24],-1.1
same,glycan array binding signal (z-score),[25],-1.24
same,glycan array binding signal (z-score),[26],-0.611
same,glycan array binding signal (z-score),[27],-0.588
same,glycan array binding signal (z-score),[28],-1.23
same,glycan array binding signal (z-score),[29],-0.901
same,glycan array binding signal (z-score),[30],-0.143
same,glycan array binding signal (z-score),[31],-0.861
same,glycan array binding signal (z-score),[32],0.23
same,glycan array binding signal (z-score),[33],-0.839
same,glycan array binding signal (z-score),[34],-0.686
same,glycan array binding signal (z-score),[35],-0.487
same,glycan array binding signal (z-score),[36],0.494
same,glycan array binding signal (z-score),[37],1.21
same,glycan array binding signal (z-score),[38],-0.123
same,glycan array binding signal (z-score),[39],1.61
same,glycan array binding signal (z-score),[40],-0.767
same,glycan array binding signal (z-score),[41],-1.35
same,glycan array binding signal (z-score),[42],-0.008
same,glycan array binding signal (z-score),[43],1.8
same,glycan array binding signal (z-score),[44],3.14
